Measurements taken from PMC9423946.
Results are given in words; binding and its absence hold for the method and conditions named. Binding seen in cells or lysates may run through a third protein. Some entries that bind do so weakly or less than the wild type.

Amino acid sequences for entries named in this document (tags omitted).
UniProt P35222: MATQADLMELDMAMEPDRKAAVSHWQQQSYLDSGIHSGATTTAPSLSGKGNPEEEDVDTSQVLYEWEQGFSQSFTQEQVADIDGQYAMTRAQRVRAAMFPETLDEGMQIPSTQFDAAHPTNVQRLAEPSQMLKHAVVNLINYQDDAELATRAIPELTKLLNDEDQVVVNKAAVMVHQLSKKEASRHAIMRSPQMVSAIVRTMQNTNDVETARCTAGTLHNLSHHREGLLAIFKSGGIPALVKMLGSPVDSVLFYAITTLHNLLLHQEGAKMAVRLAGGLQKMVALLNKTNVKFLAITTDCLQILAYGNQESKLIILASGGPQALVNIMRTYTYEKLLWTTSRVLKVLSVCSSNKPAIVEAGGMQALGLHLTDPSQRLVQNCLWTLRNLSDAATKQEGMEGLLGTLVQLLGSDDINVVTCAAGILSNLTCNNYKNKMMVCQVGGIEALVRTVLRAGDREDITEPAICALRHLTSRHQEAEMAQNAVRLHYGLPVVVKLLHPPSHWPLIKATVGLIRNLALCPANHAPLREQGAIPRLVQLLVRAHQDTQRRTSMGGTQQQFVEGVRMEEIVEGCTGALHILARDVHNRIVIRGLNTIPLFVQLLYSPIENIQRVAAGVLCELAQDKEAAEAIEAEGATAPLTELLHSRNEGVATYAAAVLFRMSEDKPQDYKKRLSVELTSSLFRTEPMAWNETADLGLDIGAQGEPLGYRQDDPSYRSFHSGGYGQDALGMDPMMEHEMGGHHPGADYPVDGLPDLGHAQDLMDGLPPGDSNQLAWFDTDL
UniProt Q86XT4: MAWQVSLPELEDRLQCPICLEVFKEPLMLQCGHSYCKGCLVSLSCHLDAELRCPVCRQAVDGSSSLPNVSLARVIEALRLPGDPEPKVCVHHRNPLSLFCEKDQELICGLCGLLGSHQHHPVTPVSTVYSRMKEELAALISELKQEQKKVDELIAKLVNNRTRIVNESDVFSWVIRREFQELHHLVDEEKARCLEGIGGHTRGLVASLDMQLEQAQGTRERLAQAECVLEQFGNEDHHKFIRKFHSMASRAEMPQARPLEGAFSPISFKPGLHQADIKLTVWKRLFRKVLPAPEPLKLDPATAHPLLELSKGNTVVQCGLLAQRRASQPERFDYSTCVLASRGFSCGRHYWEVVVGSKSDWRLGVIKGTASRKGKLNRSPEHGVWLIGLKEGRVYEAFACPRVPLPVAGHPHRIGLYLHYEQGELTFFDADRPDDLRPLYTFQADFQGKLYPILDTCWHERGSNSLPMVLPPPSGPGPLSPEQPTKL

Biological target: β-catenin (human (endogenous in AGS or SGC-7901)) (UniProt P35222)
Assay: co-IP; total protein of AGS or SGC-7901 cells in RIPA buffer mixed with anti-TRIM50, anti-β-catenin or normal IgG; protein A/G agarose beads; washed 4 times; Western blot

Tripartite motif-containing 50 (TRIM50) (from UniProt Q86XT4 1-487)
binding: binds
